No constants are given. Whether binding was seen depends on the method and setting. Binding seen in cells or lysates may run through a third protein. For part of these data: Binding calls can cover weak binding; strength is not graded here. Sequences can lack the tags named with a protein.
Experiments:
[1] = target: T1, Flag-Strep (FS)-Hey1 (UniProt Q9WV93); experiment: co-IP; Dox-induced HEK293 lines (FS-Hey1, FS-Hey2, Flag-HeyL, FS-Hes1) transfected with eGFP constructs; anti-Flag M2 affinity gel, 4°C overnight; 20 mM Tris pH 7.8, 150 mM NaCl, 10% glycerol, 0.3% Triton-X100; Western blot with anti-Flag and anti-GFP
T1 sequence: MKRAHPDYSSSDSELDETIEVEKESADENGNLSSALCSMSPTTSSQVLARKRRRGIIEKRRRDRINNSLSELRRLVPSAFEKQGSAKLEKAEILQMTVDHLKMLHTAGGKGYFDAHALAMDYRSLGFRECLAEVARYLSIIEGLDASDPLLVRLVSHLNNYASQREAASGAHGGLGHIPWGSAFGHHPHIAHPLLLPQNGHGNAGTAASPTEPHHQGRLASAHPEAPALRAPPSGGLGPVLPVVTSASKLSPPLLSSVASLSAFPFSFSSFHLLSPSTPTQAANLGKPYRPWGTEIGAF

[2] = target: T2, Flag-FBXO45 (human) (UniProt P0C2W1); experiment: co-IP; HEK293T cells co-transfected with a Flag-tagged and an eGFP-fused protein; anti-Flag M2 affinity gel, 4°C overnight; 20 mM Tris pH 7.8, 150 mM NaCl, 10% glycerol, 0.3% Triton-X100; Western blot with anti-Flag and anti-GFP
T2 sequence: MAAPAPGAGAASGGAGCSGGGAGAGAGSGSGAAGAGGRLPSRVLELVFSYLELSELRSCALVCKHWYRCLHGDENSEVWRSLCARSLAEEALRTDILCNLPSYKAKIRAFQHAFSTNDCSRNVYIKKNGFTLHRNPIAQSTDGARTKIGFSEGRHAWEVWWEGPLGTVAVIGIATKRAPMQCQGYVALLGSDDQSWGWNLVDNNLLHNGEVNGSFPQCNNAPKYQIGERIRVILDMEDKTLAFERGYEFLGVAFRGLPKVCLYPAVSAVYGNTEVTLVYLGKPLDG

Substance	binding [1]	binding [2]
eGFP-FBXO45ΔS (human) (domain or fragment)	no binding	–
eGFP-Hey1 HLH domain (domain or fragment)	–	binds
eGFP-Hey1 ΔC-ter (domain or fragment)	–	binds
eGFP-Hey1 ΔO (from UniProt Q9WV93)	–	binds
eGFP-Hey1 Δb (from UniProt Q9WV93)	–	binds
eGFP-Hey1 ΔbHLH (from UniProt Q9WV93)	–	binds
